Results: US11786603 (dated 2023)

Assay: general procedure: peptide synthesis; HATU/DIPEA
Settings: conjugation step

## DIBAC-Suc-PEG4-VC-PAB-MMAE
  conjugation yield: 19.6%
